The text below walks through data of patent US9978954B2, “Benzobis (thiadiazole) derivative, ink comprising same, and organic electronic device comprising same” (UBE INDUSTRIES, LTD., priority 2013, dated 2018).

Each structure is given as a SMILES string.

The nature of data set [1]: Field-effect mobility of organic TFT, organic semiconductor layer by spin-coating.
A short description of data set [2]: Field-effect mobility of organic TFT, organic semiconductor layer by vacuum deposition, incl. after being left in the atmosphere. The note with it: drain voltage 100 V, initial.
The mark [3] stands for this setting: ink 0.3 wt % in 1,2-dichlorobenzene heated at 130° C., PS substrate, heated at 180° C. for 35 minutes, drain voltage 100 V.
[4] abbreviates: ink 0.1 wt % in chloroform prepared at room temperature, CYC substrate, heated at 240° C. for 35 minutes, drain voltage 100 V.
The mark [5] stands for this setting: ink 0.1 wt % in chloroform prepared at room temperature, bare substrate, heated at 180° C. for 35 minutes, drain voltage 100 V.

With `FC(F)(F)Sc1cccc(-c2ccc(-c3c4c(c(-c5ccc(-c6cccc(SC(F)(F)F)c6)s5)c5nsnc35)N=S=N4)s2)c1` [Compound (C6), 4,8-bis[5-(3-((trifluoromethyl)thio)phenyl)thiophene-2-yl]benzo[1,2-c:4,5-c′]bis[1,2,5]thiadiazole], the “field-effect mobility (μ)” value in data set [1] (ink 0.3 wt % in mesitylene heated at 130° C., CYC substrate, no annealing, drain voltage 100 V) is listed as 4.2×10^−2 cm^2/Vs; in data set [1] (ink 0.3 wt % in mesitylene heated at 130° C., PS substrate, no annealing, drain voltage 100 V), 2.1×10^−2 cm^2/Vs; in data set [1] (ink 0.3 wt % in mesitylene heated at 130° C., PVP substrate, heated at 120° C. for 35 minutes, drain voltage 100 V) it was 3.9×10^−1 cm^2/Vs; in data set [2] (HMDS-modified substrate), 4.0×10^−1 cm^2/Vs; in data set [2] (PS substrate), 9.3×10^−2 cm^2/Vs.

With `FC(F)(F)c1ccc(-c2ccc(-c3c4c(c(-c5ccc(-c6ccc(C(F)(F)F)cc6)s5)c5nsnc35)N=S=N4)s2)cc1` [Compound (RC2), 4,8-bis[5-(4-(trifluoromethyl)phenyl)thiophene-2-yl]benzo[1,2-c:4,5-c′]bis[1,2,5]thiadiazole, reference compound], the “field-effect mobility (μ)” value in data set [2] (HMDS-modified substrate) is 3.9×10^−1 cm^2/Vs; in data set [2] (PS substrate), 4.1×10^−1 cm^2/Vs.

Take `CCCCCCCCCCCCc1ccc(-c2ccc(-c3c4c(c(-c5ccc(-c6ccc(CCCCCCCCCCCC)c(C(F)(F)F)c6)s5)c5nsnc35)N=S=N4)s2)cc1C(F)(F)F` [Compound (C28), 4,8-bis[5-(4-dodecyl-3-(trifluoromethyl)phenyl)thiophene-2-yl]benzo[1,2-c:4,5-c′]bis[1,2,5]thiadiazole]: the “field-effect mobility (μ)” value is on record as 1.7×10^0 cm^2/Vs in data set [1] (ink 0.1 wt % in chloroform heated at 70° C., PVP substrate, heated at 180° C. for 35 minutes, drain voltage 100 V) and 8.0×10^−1 cm^2/Vs in data set [1] (ink 0.1 wt % in chloroform heated at 70° C., bare substrate, heated at 180° C. for 35 minutes, drain voltage 100 V).

Turning to `FC(F)(F)c1cccc(-c2ccc(-c3c4c(c(-c5ccc(-c6cccc(C(F)(F)F)c6)s5)c5nsnc35)N=S=N4)s2)c1` [Compound (C2), 4,8-bis[5-(3-(trifluoromethyl)phenyl)thiophene-2-yl]benzo[1,2-c:4,5-c′]bis[1,2,5]thiadiazole], the “field-effect mobility (μ)” value in data set [1] (ink 0.3 wt % in chlorobenzene heated at 130° C., CYC substrate, heated at 150° C. for 35 minutes, drain voltage 100 V) is given as 4.5×10^−1 cm^2/Vs; in data set [1] (ink 0.3 wt % in chlorobenzene heated at 130° C., PS substrate, no annealing, drain voltage 100 V), 2.9×10^−2 cm^2/Vs; in data set [1] (ink 0.3 wt % in chlorobenzene heated at 130° C., PVP substrate, heated at 120° C. for 35 minutes, drain voltage 100 V) it was 3.4×10^−1 cm^2/Vs; in data set [2] (HMDS-modified substrate), 3.9×10^−1 cm^2/Vs; in data set [2] (PS substrate), 1.4×10^−2 cm^2/Vs.

As for `CCCCCCCCCCCCCCc1cc(-c2ccc(-c3c4c(c(-c5ccc(-c6ccc(C#N)c(CCCCCCCCCCCCCC)c6)s5)c5nsnc35)N=S=N4)s2)ccc1C#N` [Compound (C18), 4,8-bis[5-(4-cyano-3-tetradecylphenyl)thiophene-2-yl]benzo[1,2-c:4,5-c′]bis[1,2,5]thiadiazole], the “field-effect mobility (μ)” value is reported as 2.1×10^0 cm^2/Vs in data set [1] (ink 0.1 wt % in chloroform heated at 70° C., PVP substrate, heated at 180° C. for 35 minutes, drain voltage 30 V) and 1.5×10^0 cm^2/Vs in data set [1] (ink 0.1 wt % in chloroform heated at 70° C., bare substrate, heated at 120° C. for 35 minutes, drain voltage 50 V).

For `CCCCCCc1ccc(-c2ccc(-c3c4c(c(-c5ccc(-c6ccc(CCCCCC)c(OC(F)(F)F)c6)s5)c5nsnc35)N=S=N4)s2)cc1OC(F)(F)F` [Compound (C11), 4,8-bis[5-(4-hexyl-3-(trifluoromethoxy)phenyl)thiophene-2-yl]benzo[1,2-c:4,5-c′]bis[1,2,5]thiadiazole], the “field-effect mobility (μ)” value in data set [1] (ink 0.3 wt % in toluene heated at 100° C., CYC substrate, no annealing, drain voltage 100 V) was 4.0×10^−1 cm^2/Vs; in data set [1] (ink 0.3 wt % in toluene heated at 100° C., PS substrate, heated at 150° C. for 35 minutes, drain voltage 100 V) it was 8.5×10^−3 cm^2/Vs; in data set [1] (ink 0.3 wt % in toluene heated at 100° C., PVP substrate, heated at 180° C. for 35 minutes, drain voltage 100 V) it was 8.1×10^−1 cm^2/Vs.

For `CCCCCCCCCCC(F)(F)c1ccc(-c2ccc(-c3c4c(c(-c5ccc(-c6ccc(C(F)(F)CCCCCCCCCC)cc6)s5)c5nsnc35)N=S=N4)s2)cc1` [Compound (RC3), 4,8-bis[5-(4-(1,1-difluoroundecyl)phenyl)thiophene-2-yl]benzo[1,2-c:4,5-c′]bis[1,2,5]thiadiazole, reference compound], the “field-effect mobility (μ)” value is given as 1.0×10^−1 cm^2/Vs in data set [1] (setting [3]) and 6.0×10^−2 cm^2/Vs in data set [1] (ink 0.3 wt % in 1,2-dichlorobenzene heated at 130° C., PVP substrate, no annealing, drain voltage 100 V).

On to `CCCC(C)CCc1cc(-c2ccc(-c3c4c(c(-c5ccc(-c6ccc(C#N)c(CCC(C)CCC)c6)s5)c5nsnc35)N=S=N4)s2)ccc1C#N` (stereo not drawn) [Compound (C21), 4,8-bis[5-(4-cyano-3-(3-methylhexyl)phenyl)thiophene-2-yl]benzo[1,2-c:4,5-c′]bis[1,2,5]thiadiazole], for which the “field-effect mobility (μ)” value in data set [1] (ink 0.1 wt % in chloroform prepared at room temperature, PVP substrate, heated at 120° C. for 35 minutes, drain voltage 100 V) is given as 8.0×10^−1 cm^2/Vs; in data set [1] (ink 0.1 wt % in chloroform prepared at room temperature, bare substrate, heated at 120° C. for 35 minutes, drain voltage 100 V) it was 6.1×10^−1 cm^2/Vs.

As to `CCCCCCc1ccc(-c2ccc(-c3c4c(c(-c5ccc(-c6ccc(CCCCCC)c(C#N)c6)s5)c5nsnc35)N=S=N4)s2)cc1C#N` [Compound (C7), 4,8-bis[5-(3-cyano-4-hexylphenyl)thiophene-2-yl]benzo[1,2-c:4,5-c′]bis[1,2,5]thiadiazole], the “field-effect mobility (μ)” value in data set [1] (ink 0.3 wt % in chloroform heated at 60° C., CYC substrate, heated at 150° C. for 35 minutes, drain voltage 100 V) is recorded as 9.0×10^−4 cm^2/Vs; in data set [1] (ink 0.3 wt % in chloroform heated at 60° C., PS substrate, heated at 150° C. for 35 minutes, drain voltage 100 V), 1.0×10^−3 cm^2/Vs; in data set [1] (ink 0.3 wt % in chloroform heated at 60° C., PVP substrate, heated at 150° C. for 35 minutes, drain voltage 100 V), 2.5×10^−3 cm^2/Vs; in data set [1] (ink 0.3 wt % in chloroform heated at 60° C., PVP substrate, heated at 180° C. for 35 minutes, drain voltage 100 V) it was 7.3×10^−3 cm^2/Vs.

As to `CCCCCCCCCCC(F)(F)c1cccc(-c2ccc(-c3c4c(c(-c5ccc(-c6cccc(C(F)(F)CCCCCCCCCC)c6)s5)c5nsnc35)N=S=N4)s2)c1` [Compound (C4), 4,8-bis[5-(3-(1,1-difluoroundecyl)phenyl)thiophene-2-yl]benzo[1,2-c:4,5-c′]bis[1,2,5]thiadiazole], the “field-effect mobility (μ)” value in data set [1] (setting [3]) is 3.8×10^−1 cm^2/Vs; in data set [1] (ink 0.5 wt % in mesitylene heated at 130° C., CYC substrate, no annealing, drain voltage 100 V) it was 2.7×10^−1 cm^2/Vs; in data set [1] (ink 0.5 wt % in mesitylene heated at 130° C., PVP substrate, no annealing, drain voltage 100 V), 2.7×10^−1 cm^2/Vs.

Take `FC(F)(F)c1cc(-c2ccc(-c3c4c(c(-c5ccc(-c6cc(C(F)(F)F)cc(C(F)(F)F)c6)s5)c5nsnc35)N=S=N4)s2)cc(C(F)(F)F)c1` [Compound (C3), 4,8-bis[5-(3,5-bis(trifluoromethyl)phenyl)thiophene-2-yl]benzo[1,2-c:4,5-c′]bis[1,2,5]thiadiazole]: the “field-effect mobility (μ)” value in data set [2] (HMDS-modified substrate) is 1.8×10^−4 cm^2/Vs; in data set [2] (PS substrate), 5.2×10^−4 cm^2/Vs.

Take `CCCCCCCCc1cc(-c2ccc(-c3c4c(c(-c5ccc(-c6ccc(C#N)c(CCCCCCCC)c6)s5)c5nsnc35)N=S=N4)s2)ccc1C#N` [Compound (C14), 4,8-bis[5-(4-cyano-3-octylphenyl)thiophene-2-yl]benzo[1,2-c:4,5-c′]bis[1,2,5]thiadiazole]: the “field-effect mobility (μ)” value in data set [1] (setting [4]) was 2.0×10^0 cm^2/Vs; in data set [1] (ink 0.1 wt % in chloroform prepared at room temperature, PVP substrate, heated at 180° C. for 35 minutes, drain voltage 80 V), 1.0×10^0 cm^2/Vs; in data set [1] (setting [5]), 8.5×10^−1 cm^2/Vs; in data set [1] (spin-coating and heating in the atmosphere, ink 0.1 wt % in chloroform prepared at room temperature, PVP substrate, heated at 180° C. for 35 minutes, drain voltage 100 V) it was 6.9×10^−1 cm^2/Vs; in data set [1] (spin-coating and heating in the atmosphere, ink 0.1 wt % in chloroform prepared at room temperature, bare substrate, heated at 180° C. for 35 minutes, drain voltage 100 V), 6.5×10^−1 cm^2/Vs.

Consider `FC(F)(F)Sc1ccc(-c2ccc(-c3c4c(c(-c5ccc(-c6ccc(SC(F)(F)F)cc6)s5)c5nsnc35)N=S=N4)s2)cc1` [Compound (RC5), 4,8-bis[5-(4-((trifluoromethyl)thio)phenyl)thiophene-2-yl]benzo[1,2-c:4,5-c′]bis[1,2,5]thiadiazole, reference compound], for which the “field-effect mobility (μ)” value is recorded as 3.9×10^−1 cm^2/Vs in data set [2] (HMDS-modified substrate) and 7.1×10^−1 cm^2/Vs in data set [2] (PS substrate).

For `CCCCCCCCCc1cc(-c2ccc(-c3c4c(c(-c5ccc(-c6ccc(C#N)c(CCCCCCCCC)c6)s5)c5nsnc35)N=S=N4)s2)ccc1C#N` [Compound (C15), 4,8-bis[5-(4-cyano-3-nonylphenyl)thiophene-2-yl]benzo[1,2-c:4,5-c′]bis[1,2,5]thiadiazole], the “field-effect mobility (μ)” value in data set [1] (setting [4]) is 1.1×10^0 cm^2/Vs; in data set [1] (ink 0.1 wt % in chloroform prepared at room temperature, PVP substrate, heated at 180° C. for 35 minutes, drain voltage 100 V), 1.3×10^0 cm^2/Vs; in data set [1] (setting [5]) it was 1.5×10^0 cm^2/Vs.
